Measurements: patent publication US20120183553A1
These are yes or no findings as the source states them, for the method shown. For part of these data: In cells and extracts the contact can be indirect. Some results given as binding are weak or reduced against the parent protein; the word gives no strength. Where a sequence is shown, tags or fusion partners need not be part of it.

Chains of the proteins cited; added tags and fusions are not shown.
UniProt Q9NQB0: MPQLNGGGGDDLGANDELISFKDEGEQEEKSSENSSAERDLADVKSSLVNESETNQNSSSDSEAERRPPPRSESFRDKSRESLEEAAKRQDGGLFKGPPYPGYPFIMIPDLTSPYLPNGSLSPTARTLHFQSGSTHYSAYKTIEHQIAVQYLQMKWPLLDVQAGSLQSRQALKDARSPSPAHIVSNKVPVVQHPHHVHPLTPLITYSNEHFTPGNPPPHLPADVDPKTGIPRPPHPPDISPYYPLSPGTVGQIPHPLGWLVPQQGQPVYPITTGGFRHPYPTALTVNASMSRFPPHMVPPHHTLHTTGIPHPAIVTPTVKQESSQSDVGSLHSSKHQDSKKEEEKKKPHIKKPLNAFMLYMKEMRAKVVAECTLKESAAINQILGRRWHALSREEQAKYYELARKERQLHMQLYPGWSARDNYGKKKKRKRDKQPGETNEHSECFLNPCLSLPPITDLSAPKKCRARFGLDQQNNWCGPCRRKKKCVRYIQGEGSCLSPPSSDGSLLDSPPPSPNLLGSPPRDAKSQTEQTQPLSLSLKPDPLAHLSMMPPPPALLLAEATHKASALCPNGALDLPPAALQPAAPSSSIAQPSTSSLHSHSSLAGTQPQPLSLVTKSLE

What was measured:
[1] = biological target: TCF4 (UniProt Q9NQB0); assay: co-immunoprecipitation from HCT116 cell extracts with anti-TCF4-coated beads, western blot
[2] = biological target: TCF4 (UniProt Q9NQB0); assay: TCF4 immunoprecipitation from HCT116 lysates after transfection with increasing Myc-Hom-1, western blot
[3] = biological target: TCF4 (UniProt Q9NQB0); assay: co-immunoprecipitation in the presence of 20 µg/ml ethidium bromide

binding [1]: binds
binding [2]: binds
binding [3]: binds
B1: Myc-tagged Hom-1 (protein, not shown: small tags and cut ends)
chain: MRLSSSPPRGPQQLSSFGSVDWLSQSSCSGPTHTPRPADFSLGSLPGPGQTSGAREPPQAVSIKEAAGSSNLPAPERTMAGLSKEPNTLRAPRVRTAFTMEQVRTLEGVFQHHQYLSPLERKRLAREMQLSEVQIKTWFQNRRMKHKRQMQDPQLHSPFSGSLHAPPAFYSTSSGLANGLQLLCPWAPLSGPQALMLPPGSFWGLCQVAQEALASAGASCCGQPLASHPPTPGRPSLGPALSTGPRGLCAMPQTGDAF
